Reference: PubChem BioAssay AID2685 (National Center for Advancing Translational Sciences (NCATS), 2010)
Out of some 320,000 compounds screened, about 2,100 (0.66%) were called active. The inconclusive results got no clear call from the source; some entries with a clear call stand among them for comparison. The call rests on the fitted dose curve; in most records, active means well fitted inhibition curve with a large enough effect in the signal ratio, with a control signal flat (not every such curve was filed as active); inconclusive means small, poorly fitted or top-dose-only effect, or effect the other way, or a change in a side signal; inactive means flat fitted curve, though single readings scatter; the % refers to the signal ratio. A potency beside an inconclusive call is a rough fit, not a confirmed value.
On the % scale 0 is the no-effect control and ±100 the full control effect; potency means the concentration at half of the fitted maximal effect.

Assay: qHTS Assay for Lipid Storage Modulators in Drosophila S3 Cells
Details: BODIPY lipid droplet fluorescence, 18-24 h, cells fed with added oleic acid; lipid storage change, negative = inhibition: at 46.1 µM (top of the series) unless noted
How it was run: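 Laser-scanning cytometry quantifies lipid droplet accumulation (500–530 nm total intensity; droplet/cell object ratio) in oleic acid-fed (400 uM added) Drosophila S3 cells treated with a concentration series. 20 uM Triacsin C defined 100% inhibition.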
In the case of `CC(=O)Nc1cccc(Oc2ccc3c(c2)C(=O)NC3=O)c1`, the lipid storage change, negative = inhibition is reported as “inactive”.
With `O=C(Nc1cccc(S(=O)(=O)N2CCCC2)c1)c1cc(=O)[nH]c2ccccc12` the lipid storage change, negative = inhibition was inconclusive: 44.7%.
In the case of `Cc1cc(F)ccc1NC(=O)CCCN(C)S(=O)(=O)c1ccc(F)cc1`, the lipid storage change, negative = inhibition is reported as inconclusive: 28.2%.
With `COc1ccc(OC)c(C2=NS(=O)(=O)N(C)C(C(=O)NCc3ccco3)=C2)c1` the lipid storage change, negative = inhibition was inconclusive: -69.5%.
For `Cc1cccc2cc(COC(=O)C3CCCCC3)c(=O)[nH]c12`, the lipid storage change, negative = inhibition was “inactive”.
With `O=C(CCCc1ccccc1)NC1CC1` the lipid storage change, negative = inhibition was inconclusive: -6.07%.
For `CC(=O)N/C(=C\c1ccc(F)cc1)C(=O)NC(C(=O)O)C(C)C` (stereo not given), the lipid storage change, negative = inhibition was inconclusive: -19%.
In the case of `COc1ccc(-n2cccc2C=O)cc1OC`, the Potency is reported as inconclusive: 23.1 µM [activator, single point].
In the case of `O=C(Nc1ccc2nc(-c3ccco3)c(-c3ccco3)nc2c1)N1CCCCCC1`, the lipid storage change, negative = inhibition is reported as inconclusive: 48.7%.
In the case of `C=C(C)c1ccc(C(C)(C)NC(=O)N2CCN(C)CC2)cc1`, the Potency is reported as inconclusive: 29.1 µM [falling, partial curve, poor fit].
For `Cc1cc(-n2c(C)cc(C(=O)COc3cccnc3[N+](=O)[O-])c2C)no1`, the lipid storage change, negative = inhibition was “inconclusive”.
In the case of `N#CCc1ccccc1C(=O)OCC(=O)N(Cc1ccccc1)Cc1ccccc1`, the lipid storage change, negative = inhibition is reported as inconclusive: -0.492%.
With `Cn1c(C23CC4CC(CC(C4)C2)C3)n[nH]c1=S` the lipid storage change, negative = inhibition was inconclusive: -26.6%.
In the case of `Cc1ccc(S(=O)(=O)N2CCN(C(=O)CCCN3C(=O)NC4(CCCC4)C3=O)CC2)cc1C`, the Potency is reported as inconclusive: 0.651 µM [activator, full curve].
With `CCOc1ncccc1C(=O)OCC(=O)c1ccc[nH]1` the Potency was inconclusive: 0.146 µM [falling, full curve, poor fit].
With `Cc1nnc(-c2ccc(N3CCCCCC3)c([N+](=O)[O-])c2)o1` the lipid storage change, negative = inhibition was inconclusive: 7.32%.
In the case of `COc1ccc(CN(C(=O)c2oc3ccc(F)cc3c2C)C2CCS(=O)(=O)C2)cc1` (stereo not given), the Potency is reported as inconclusive: 29.1 µM [falling, single point].
In the case of `CC(C)CCNC(=O)c1onc(CSc2nc3ccccc3[nH]2)c1C(=O)NCCC(C)C`, the lipid storage change, negative = inhibition is reported as inconclusive: -58%.
In the case of `Cc1ccc(CNC(=O)C2CCC(=O)N(CCc3ccc(Cl)cc3)C2)s1` (stereo not given), the lipid storage change, negative = inhibition is reported as inconclusive: 19.4%.
In the case of `CCOc1ccc(NC(=O)c2cccc(NC(=O)c3ccccc3)c2)cc1`, the Potency is reported as inconclusive: 0.13 µM [falling, full curve, poor fit].
In the case of `Fc1ccc(/C=N/NC(=S)Nc2ccc(Cl)cc2)cc1F`, the Potency is reported as inconclusive: 3.26 µM [activator, partial curve, poor fit].
With `CCN(CC)S(=O)(=O)c1cc(C(=O)N(C)CC(=O)Nc2ccc(Cl)cc2)ccc1Cl` the lipid storage change, negative = inhibition was inconclusive: 25.7%.
With `CCCCn1c(N)c(N(CCOC)C(=O)CSc2n[nH]c(-c3ccc(OC)cc3)n2)c(=O)[nH]c1=O` the lipid storage change, negative = inhibition was inconclusive: 29.3%.
With `CN(Cc1ccccc1)C(=O)c1ccc(NC(=O)Cc2cccc(NC(=O)C3CCN(C(=O)C4CCC4)CC3)c2)cc1` the lipid storage change, negative = inhibition was inconclusive: -36.1%.
For `N#C/C(=C\c1c(F)cccc1Cl)C(=O)NC1CC1`, the Potency was inconclusive: 6.51 µM [falling, single point].
In the case of `O=C(CSc1nnc2ccc(-c3ccco3)nn12)Nc1ccccc1F`, the lipid storage change, negative = inhibition is reported as inconclusive: 31.4%.
In the case of `COc1ccc(CC(=O)NCc2ccc3c(c2)OCO3)cc1`, the lipid storage change, negative = inhibition is reported as inconclusive: 5.14%.
For `COc1ccc(C=O)cc1COc1ccc2c(c1)OCO2`, the Potency was inconclusive: 29.1 µM [activator, single point].
In the case of `CCCn1c(=O)c2ccccc2n2c(SCC(=O)c3ccc(CC)cc3)nnc12`, the Potency is reported as inconclusive: 11.6 µM [activator, partial curve].
With `CN(CC(=O)Nc1ccccc1Br)C(=O)c1cc2c(s1)CCCCC2` the lipid storage change, negative = inhibition was inconclusive: 37.5%.
In the case of `Cc1nn(CC(=O)O)c(=O)c2ccccc12`, the Potency is reported as inconclusive: 25.9 µM [falling, single point].
In the case of `C/C(CC(=O)Nc1ccc(Cl)cn1)=N\NC(=O)Cc1cccs1`, the lipid storage change, negative = inhibition is reported as inconclusive: -5.29%.
With `CC(=O)N1[C@H](Cc2ccccc2)C=C[C@]1(C)C(=O)NCCc1c[nH]c2ccccc12` the lipid storage change, negative = inhibition was inconclusive: 2.49%.
With `COc1ccc2[nH]c(C(=O)N3CCN(Cc4ccccc4)CC3)cc2c1OC` the lipid storage change, negative = inhibition was inconclusive: -72.5%.
In the case of `C=CCN1C(=O)C(C)(C)N(C(C)=O)c2ccccc21`, the lipid storage change, negative = inhibition is reported as inconclusive: 7.42%.
In the case of `COc1ccc2ccn(C)c2c1`, the lipid storage change, negative = inhibition is reported as inconclusive: 1.38%.
In the case of `COc1ccc(NC(=O)CC2SC(=NCc3ccccc3OC)NC2=O)cc1` (stereo not given), the lipid storage change, negative = inhibition is reported as inconclusive: -25.8%.
With `O=C(NNc1nc(-c2ccccc2)c2cc(Br)ccc2n1)c1ccc(S(=O)(=O)N2CCOCC2)cc1` the lipid storage change, negative = inhibition was inconclusive: 35.3% [activator].
In the case of `CN(Cc1cccc(Cl)c1Cl)c1ccc(S(=O)(=O)N2CCCCC2)cc1[N+](=O)[O-]`, the Potency is reported as inconclusive: 9.2 µM [activator, partial curve].
With `O=[N+]([O-])c1ccc(N2CCN(c3ccc(O)cc3)CC2)c(Cl)c1` the Potency was inconclusive: 2.06 µM [falling, full curve, poor fit].
With `CCn1c(-c2ccc(C(C)(C)C)cc2)n[nH]c1=S` the lipid storage change, negative = inhibition was inconclusive: 48%.
In the case of `O=C(NCc1ccccn1)c1ccccc1OCc1ccc(F)cc1`, the lipid storage change, negative = inhibition is reported as “inconclusive”.
With `COCc1cc(=O)[nH]c(/N=C(\N)Nc2ccc(Oc3ccccc3)cc2)n1` the lipid storage change, negative = inhibition was inconclusive: -20%.
For `C=CCOc1c(OC)cc(Cl)cc1C1NC(=O)NC(C)=C1C(C)=O` (stereo not given), the lipid storage change, negative = inhibition was inconclusive: 8.17%.
With `O=C(O)CCNC(=O)OCC1c2ccccc2-c2ccccc21` the lipid storage change, negative = inhibition was inconclusive: -16.3%.
In the case of `COc1cccc(-c2nnc(-c3ccco3)o2)c1`, the lipid storage change, negative = inhibition is reported as inconclusive: 35.9%.
In the case of `COCCCNS(=O)(=O)c1ccc2c(c1)CCN2C(C)=O`, the lipid storage change, negative = inhibition is reported as inconclusive: 5.06%.
With `Cc1nnc(SCC(=O)NC2CCCCC2)[nH]c1=O` the lipid storage change, negative = inhibition was inconclusive: -123%.
With `O=C(CC1OCC2CCCN2C1=O)Nc1ccc([N+](=O)[O-])cc1` (stereo not given) the lipid storage change, negative = inhibition was inconclusive: -21.6%.
With `O=C(NCc1ccc(Cl)cc1)c1n[nH]c([N+](=O)[O-])c1Cl` the Potency was inconclusive: 3.26 µM [falling, single point].
